Record: PubChem BioAssay AID602196 (INSERM, 2012)
Purpose: 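Genes whose knock-down alters cisplatin killing of lung cancer cells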. Cells: human A549 lung cancer cells. Reagent: siRNA pair against human genes. Time to read-out: 48 h transfection before cisplatin; time from cisplatin to read-out not stated. Treatment: cisplatin at a dose killing half of control-siRNA cells; exact dose and duration not given. Measurement: 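Shift in cisplatin death relative to control siRNA, from -50 (all cells die) to +50 (no cells die); siRNAs harmful on their own scored 0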. Reading the numbers: two-siRNA summed score (-2 to +2): higher = both siRNAs protect from cisplatin killing; -2 means both sensitise; mean protection from cisplatin (shift in death) and protection from cisplatin (shift in death), siRNA C and protection from cisplatin (shift in death), siRNA D: higher = protection from cisplatin killing. Active means: 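Each siRNA scores 0 if harmful alone by LDH or WST-1, otherwise +1 if it reduces and -1 if it increases cisplatin killing; a gene is active when both siRNAs agree (sum +2 or -2)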. Calls: active = both siRNAs shift cisplatin killing the same way; inactive = no consistent shift, or siRNA harmful alone.
The deposit covers about 23,000 reagents; shown is an unselected part. 455 of all reagents (2%) count as active. 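Active includes both protection and sensitisation; some change values fall well beyond the stated -50 to +50 range.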 Not stated in the record: the amount of reagent.

The first 6 entries, to show the layout:
target gene	two-siRNA summed score (-2 to +2)	mean protection from cisplatin (shift in death) (%)	protection from cisplatin (shift in death), siRNA C (%)	protection from cisplatin (shift in death), siRNA D (%)	activity call
TRPM7	0	-1.8	-15.1	11.5	inactive
TMEM200B	1	8.4	24.9	-8	inactive
LINC01342	0	2.6	-13.5	18.7	inactive
PLCH2	0	-8.7	-3.7	-13.7	inactive
TMEM52	0	9.6	24.6	-5.3	inactive
RGS6	-1	-11.6	5.4	-28.5	inactive

The listing, repeating the preview:
target gene	two-siRNA summed score (-2 to +2)	mean protection from cisplatin (shift in death) (%)	protection from cisplatin (shift in death), siRNA C (%)	protection from cisplatin (shift in death), siRNA D (%)	activity call
TRPM7	0	-1.8	-15.1	11.5	inactive
TMEM200B	1	8.4	24.9	-8	inactive
LINC01342	0	2.6	-13.5	18.7	inactive
PLCH2	0	-8.7	-3.7	-13.7	inactive
TMEM52	0	9.6	24.6	-5.3	inactive
RGS6	-1	-11.6	5.4	-28.5	inactive
DAPK3	0	16.1	30.5	1.6	inactive
KATNBL1	0	2.7	-1.1	6.5	inactive
LOC442146	0	4.1	-2.8	10.9	inactive
PYCR2	0	-2	4.1	-8.1	inactive
LOC392208	1	3.7	11.3	-3.9	inactive
TBL2	0	10.6	-5.1	26.3	inactive
RAB3IL1	0	-6.4	2.2	-15	inactive
GTSCR1	0	3.6	-3.5	10.6	inactive
RASL11B	0	2.8	7.1	-1.4	inactive
ZNF665	0	6.1	10.6	1.6	inactive
FBXW8	0	-23.7	-28.9	-18.6	inactive
SULT1C3	0	9.4	9.2	9.6	inactive
CSTF2	0	3.3	2.1	4.4	inactive
CEP68	1	2.1	-14.4	18.7	inactive
RBM11	0	8.5	11.8	5.2	inactive
WNT8B	0	8.3	9.3	7.3	inactive
KDR	0	7.1	15	-0.8	inactive
LOC400617	0	8.6	8.2	9	inactive
LOC440866	-1	-6.5	0.9	-13.9	inactive
SPRR3	0	-1.4	0.4	-3.1	inactive
SH3BGR	0	9.6	12.9	6.3	inactive
HCP5	1	18	19	17	inactive
EPB41L3	0	13.1	13.7	12.5	inactive
ERCC2	0	3	1.9	4.1	inactive
LMO2	-1	2.2	20.8	-16.3	inactive
USP1	1	13.7	1.4	26	inactive
COL11A2	0	-3.9	-11	3.3	inactive
LOC347475	0	7.8	10.4	5.2	inactive
POLN	0	9.9	9.4	10.4	inactive
SFRP2	1	0.3	-16.2	16.7	inactive
MAP4K4	-1	-4	-13.6	5.6	inactive
PSMA4	0	5.1	-0.3	10.4	inactive
OR13G1	0	5.4	5.6	5.3	inactive
RNF14	0	-0.6	-4.2	3	inactive
SNN	0	-6.4	-4.9	-8	inactive
SYTL2	1	11.8	22.2	1.5	inactive
FLJ30092	1	9.6	1	18.1	inactive
TRIM35	-1	-11.2	0.3	-22.8	inactive
LHFPL4	0	6.9	-0.2	14.1	inactive
LOC107985476	0	-9.4	-15.3	-3.4	inactive
LOC339746	0	10.2	12.1	8.3	inactive
LOC339778	0	13.9	13.9	13.8	inactive
NDUFB7	0	17.1	14.7	19.5	inactive
LOC440891	0	9	11	7	inactive
RRM2B	0	5.8	17.1	-5.5	inactive
COX5B	2	19.8	23.6	16.1	active
LOC389905	1	12.2	7.4	17	inactive
C7orf25	0	0.2	-1.5	2	inactive
TBCC	0	9.7	13.1	6.4	inactive
PDE4C	0	4.4	3	5.8	inactive
LOC440709	0	8.6	10.2	7	inactive
